# Laboratory results reported in the supplement of paper PMC8728848.
# This is one part of the list.
# B1: Awp3 (Candida glabrata), B4UN32 (protein)
# chain: MISFVTLLAILGLLSISWADQTVRSVAGDQRVTDPVIVGDNSILDYYGGSNYDFSNNFEIGRGTLYIGKESYFSSFQSAPTDVPNSFHLLIKNTNNLQNNGQFIIENIKRHANQCSNSSIQVFPINFQNDGEFEIISGGVEGRCCLPTSVIAPQNFLNNGKFYYKVLTDTGSIYSGSCMQNVDIGASTTTTVNNNLWEFTGSINAQINGAVSGAAQINLDGSNMFVNANTFSGQVVNLINGGSFLQTSDPLSNIVVINGLGTSDTGVTSIAVKGKGKSFTYNPSSGIVKLTTVEGKTYAYQIGCGYNTKKFITNNDSGASYESADNFFVLTYSEPYSPQTCQLENSSIFSSNFISTSTSSSSSSSSASSLPSSMSSSLPSSLSSSLSSSLSSSMSSSMSSLFIIPPPYTTTRSSGSSIIDTEIVSFYSTTDSPGHTITGTTTTTLYGPHTHSSVSTPSSSSESSTTSNSSIESSSLPHTSVSSTPESSITPSSNTISSSPTSDFSSVQSSSIMESSSVVASSSVINSSSIVDSSSSSASSLPSSMSSSLSSSMSSSLPSSMSSSLSSSLSSSLSSSMSSSMSSLFIIPPPYTTTRSSGSSIIDTEIVSFYSTTDSPGHTITGTTTTTLYGPHTHSSVSTPSSSSESSTTSNSSIESSSLPHTSVSSTPESSITPSSNTISSSPTSDFSSVQSSSIMESSSVVASSSVINSSSIVDSSSSSASSLPSSMPSSLPSSMSSSLSSSMSSSLSSSLSSSLSSSMSSSMSSLFIIPPPYTTTRSSGSSIIDTEIVSFYSTTDSPGHTITGTTTTTLYGPHTHSSVSTPSSSSESSTTSNSSIESSSLPHTSVSSTPESSITPSSNTISSSPTSDFSSVQSSSIMESSSVVASSSATQSSSVINSSSIVDSSSSSASSLPSSMPSSLPSSLSSSLSSSLSSSMSSSMSSLFIIPPPYTTTRSSGSSIIDTEIVSFYSTTDSPGHTITGTTTTTLYESSIYSSSSSTIQESELSNTSRTTMTSNSSVSISSTSSRSSFSNTKSSTIVISQSASLPDSKTDIILSTSSNIGYSSRSLLSDLGTSISDSDIHHSVLHSTESYSSNESGTNPFTSIASLSNFIPESSSHTSTALGSENSVISSDILTTMSHPVATNSGDKPTTPKRSEQVSTTMTSSGPTPDTSSFDTDGMSAYSRPEFTTNSLEVNKSSTSQLGNNKQTFSNLQLESTRPHSENEVDNNTRLLQSIQQSSTYGTNNVNPLSPTGSISIPLTEDGQGDNNNWNSPATNDLCTQISFNLTATTITVTDRITITDSIHDISSEVITSYIYQTIVDQKTVTQTVDGKSLANKMSSIPKPSSRSLIQPQPPVAIELQEGAASTSRVSLVSLFISIILVLL
# Tests used:
# Assay in all cases: glycan array binding signal (z-score within array); higher = stronger binding
# Settings in all cases: glycan notation: IUPAC condensed, linker removed
# [1] = molecular target: Gal(a1-3)Gal(b1-4)GlcNAc(b1-2)Man
# Procedure, shortened: (§1)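 Columns mapping to the same glycan were averaged after glycan names were converted to IUPAC-condensed notation. The data come from 3228 arrays in the Consortium for Functional Glycomics database, limited to those with an available protein sequence. Binding is reported as a within-array Z-score averaged across arrays of one protein sequence and across linkers.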
# [2] = molecular target: Gal(a1-3)Gal(b1-4)GlcNAc(b1-2)Man(a1-3)[Gal(a1-3)Gal(b1-4)GlcNAc(b1-2)Man(a1-6)]Man(b1-4)GlcNAc(b1-4)GlcNAc
# Procedure, shortened: as §1
# [3] = molecular target: Gal(a1-3)Gal(b1-4)GlcNAc(b1-3)GalNAc
# Procedure, shortened: as §1
# [4] = molecular target: Gal(a1-3)Gal(b1-4)GlcNAc(b1-6)GalNAc
# Procedure, shortened: as §1
# [5] = molecular target: Gal(a1-3)Gal(b1-4)[Fuc(a1-3)]GlcNAc
# Procedure, shortened: as §1
# [6] = molecular target: Gal(a1-3)Gal(b1-4)[Fuc(a1-3)]GlcNAc(b1-2)Man(a1-3)[Gal(a1-3)Gal(b1-4)[Fuc(a1-3)]GlcNAc(b1-2)Man(a1-6)]Man(b1-4)GlcNAc(b1-4)GlcNAc
# Procedure, shortened: as §1
# [7] = molecular target: Gal(a1-3)GalNAc
# Procedure, shortened: as §1
# [8] = molecular target: Gal(a1-3)[Gal(a1-4)]Gal(b1-4)GlcNAc
# Procedure, shortened: as §1
# [9] = molecular target: Gal(a1-4)Gal(b1-3)GlcNAc(b1-2)Man(a1-3)[Gal(a1-4)Gal(b1-3)GlcNAc(b1-2)Man(a1-6)]Man(b1-4)GlcNAc(b1-4)GlcNAc
# Procedure, shortened: as §1
# [10] = molecular target: Gal(a1-4)Gal(b1-4)Glc
# Procedure, shortened: as §1
# [11] = molecular target: Gal(a1-4)Gal(b1-4)GlcNAc
# Procedure, shortened: as §1
# [12] = molecular target: Gal(a1-4)Gal(b1-4)GlcNAc(b1-2)Man(a1-3)[Gal(a1-4)Gal(b1-4)GlcNAc(b1-2)Man(a1-6)]Man(b1-4)GlcNAc(b1-4)GlcNAc
# Procedure, shortened: as §1
# [13] = molecular target: Gal(a1-4)Gal(b1-4)GlcNAc(b1-3)Gal(b1-4)Glc
# Procedure, shortened: as §1
# [14] = molecular target: Gal(a1-4)GlcNAc
# Procedure, shortened: as §1
# [15] = molecular target: Gal(a1-6)Glc
# Procedure, shortened: as §1
# [16] = molecular target: Gal(b1-2)Gal
# Procedure, shortened: as §1
# [17] = molecular target: Gal(b1-3)Gal
# Procedure, shortened: as §1
# [18] = molecular target: Gal(b1-3)Gal(b1-4)GlcNAc
# Procedure, shortened: as §1
# [19] = molecular target: Gal(b1-3)GalNAc
# Procedure, shortened: as §1
# [20] = molecular target: Gal(b1-3)GalNAc(a1-3)[Fuc(a1-2)]Gal(b1-4)Glc
# Procedure, shortened: as §1
# [21] = molecular target: Gal(b1-3)GalNAc(a1-3)[Fuc(a1-2)]Gal(b1-4)GlcNAc
# Procedure, shortened: as §1
# [22] = molecular target: Gal(b1-3)GalNAc(b1-3)Gal
# Procedure, shortened: as §1
binder,measurement,setting,value
B1,glycan array binding signal (z-score),[1],-1.08
same,glycan array binding signal (z-score),[2],-0.744
same,glycan array binding signal (z-score),[3],-0.461
same,glycan array binding signal (z-score),[4],-0.928
same,glycan array binding signal (z-score),[5],-0.54
same,glycan array binding signal (z-score),[6],-0.419
same,glycan array binding signal (z-score),[7],1.46
same,glycan array binding signal (z-score),[8],-0.711
same,glycan array binding signal (z-score),[9],-0.156
same,glycan array binding signal (z-score),[10],0.805
same,glycan array binding signal (z-score),[11],-0.218
same,glycan array binding signal (z-score),[12],1.22
same,glycan array binding signal (z-score),[13],0.68
same,glycan array binding signal (z-score),[14],2.25
same,glycan array binding signal (z-score),[15],-0.454
same,glycan array binding signal (z-score),[16],-0.471
same,glycan array binding signal (z-score),[17],-0.155
same,glycan array binding signal (z-score),[18],-0.446
same,glycan array binding signal (z-score),[19],0.079
same,glycan array binding signal (z-score),[20],0.765
same,glycan array binding signal (z-score),[21],-1.14
same,glycan array binding signal (z-score),[22],-0.738

# Exported bar-delimited: entries from further up.
binder | measurement | setting | value
B1 | glycan array binding signal (z-score) | [9] | -0.156
same | glycan array binding signal (z-score) | [10] | 0.805
